## Library screen at single concentrations

Amino acid sequences for entries named in this document (tags omitted).
UniProt P9WPC5, whole entry: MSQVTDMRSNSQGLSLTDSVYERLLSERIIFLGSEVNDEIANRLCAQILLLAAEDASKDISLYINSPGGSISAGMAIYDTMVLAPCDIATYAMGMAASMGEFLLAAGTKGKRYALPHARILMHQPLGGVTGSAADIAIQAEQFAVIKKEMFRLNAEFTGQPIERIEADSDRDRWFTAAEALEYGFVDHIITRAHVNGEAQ
UniProt P9WPC3, whole entry partner: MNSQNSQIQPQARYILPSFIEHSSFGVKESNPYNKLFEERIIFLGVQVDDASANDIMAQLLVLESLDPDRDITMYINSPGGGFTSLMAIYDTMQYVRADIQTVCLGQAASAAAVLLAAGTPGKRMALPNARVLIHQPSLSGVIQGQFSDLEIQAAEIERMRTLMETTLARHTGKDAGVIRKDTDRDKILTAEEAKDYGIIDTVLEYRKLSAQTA
UniProt P9WFT3, whole entry: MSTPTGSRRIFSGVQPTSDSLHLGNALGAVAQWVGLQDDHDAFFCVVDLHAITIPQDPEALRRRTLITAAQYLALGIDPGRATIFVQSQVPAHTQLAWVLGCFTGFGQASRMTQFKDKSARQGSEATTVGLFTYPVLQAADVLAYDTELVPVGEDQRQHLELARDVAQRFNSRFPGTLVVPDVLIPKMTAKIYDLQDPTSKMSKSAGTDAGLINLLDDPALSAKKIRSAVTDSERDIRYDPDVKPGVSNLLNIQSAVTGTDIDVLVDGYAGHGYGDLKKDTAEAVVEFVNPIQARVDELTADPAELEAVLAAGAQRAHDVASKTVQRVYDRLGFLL

The values are deposited in ChEMBL (CHEMBL3988442, “University of Dundee, Small-Polar-MMV Screening Library” (2021)).

A: 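ClpP1P2, Mycobacterium tuberculosis (UniProt P9WPC5 and UniProt P9WPC3). Protease assay of ClpP1P2, read by the AMC dye that it sets free. Concentration: 50 µM. Direction is inferred from only a few compounds that gave an IC50; most scored high, so higher reads as stronger inhibition. Most other retested compounds had strongly negative values. Of about 69,000 compounds tested this way, about 10 (0.015%) reached 50% or more in at least one test.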
B: 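Tryptophan-tRNA ligase, Mycobacterium tuberculosis (UniProt P9WFT3). Enzyme assay of tryptophanyl-tRNA synthetase; the read-out is not stated. Compounds at 10 µM. Higher most likely means stronger inhibition; the record gives no direction and few retests gave an IC50. About 65,000 compounds were tested under these conditions; 0.098% (about 64) showed 50% or more at least once.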

The filed quantity is “Percent Effect” (%).
The controls that fix the scale are not given in the record; negative values are as filed.
The compounds are a random part of those screened.
A dash means the value is not listed here; it may have been measured.

structure	A	B
COc1cccc(-c2nc(CNC(C)Cn3cccn3)cs2)c1 (stereo not drawn)	-1.256	-4.946
CC(=O)N1CCCn2nc(CNc3cc(C)ncn3)cc2C1	5.335	12.15
Cc1nnc(N2CCOC(Cn3cccn3)C2)c(C#N)c1C (stereo not drawn)	11.76	-2.358
C=C(C)COc1ccccc1C(=O)NCCc1nncn1C	2.114	1.818
O=C1NCCN1CCNCC1(O)CCCN(CCC2CCCCC2)C1=O (stereo not drawn)	-17.12	-1.522
CN1CCCC(Cc2ccnc3ccncc23)CC1 (stereo not drawn)	-1.175	3.93
O=C(Cc1cc(-c2ccc3c(c2)OCO3)on1)NC1CCCC1	4.859	-3.774
CC(C)(C)n1ccc(C(=O)N2CCCC(c3ncc[nH]3)C2)c1 (stereo not drawn)	-3.029	-0.3673
CN(Cc1ccccc1Br)C(=O)Cn1nc(-c2ccc(F)cc2)oc1=O	-2.65	3.496
Cc1nn(C)c(C)c1C1CCCN1C(=O)c1cc(C(N)=O)cs1 (stereo not drawn)	-2.072	-1.329
Cc1nc(N2CCCC2)nc2c1CCN(C(=O)C1CCC1)CC2	8.5	1.521
CCc1cnc(C)nc1NCCN1CCCCCC1	-28.55	-0.9114
CC(Nc1cnn(C)c(=O)c1Cl)c1ccc(F)c(F)c1 (stereo not drawn)	8.805	-1.627
COCCOCC(=O)NC(C#N)c1cccc(Cl)c1Cl (stereo not drawn)	-11.14	-5.647
Cc1nc(Nc2ncc(C)s2)cc(C2CCCN2S(C)(=O)=O)n1 (stereo not drawn)	0.654	-0.4706
CC(C)NC(=O)CCNC(=O)c1c(Br)c2ccccc2n1C	5.101	-3.382
CC(=O)NCC(=O)N1Cc2nccn2CC(CN(C)C(C)C)C1 (stereo not drawn)	9.245	-8.313
CC(C)(C)c1ncc2c(n1)CN(C(=O)c1ccc(-c3nc[nH]n3)cc1)C2	-2.715	0.4112
CCCc1ccc(C(=O)N2CCc3c(nc(N(C)C)[nH]c3=O)C2)cc1	-3.839	-2.328
COCCN1C(=O)CCC12CCCN(Cc1ccccc1F)C2 (stereo not drawn)	-12.01	0.8892
CS(=O)(=O)c1ccc(-c2cnc(C3CCCN3)cn2)cc1 (stereo not drawn)	-14.87	-4.699
CS(=O)(=O)Nc1cccc(C(=O)Nc2ccc3c(c2)C(=O)NC3)c1	-14.63	9.259
CC(C)CC(=O)N1CCCC1c1ccsc1 (stereo not drawn)	-13.93	2.164
Cc1cnn(CC2CCCN2Cc2cc(C)on2)c1 (stereo not drawn)	-18.49	-8.84
CN1CCC(NC(=O)Nc2ccc(F)c(Br)c2)C1=O (stereo not drawn)	6.415	8.182
CCN1CCC2(CC1)CN(C(=O)c1cccnc1)c1ccc(Cl)cc12	6.277	-
O=C(CCn1cc(Cl)cn1)N1CCC2(CC1)[C@H](O)C[C@@H]2OCCO	0.7516	0.9709
N#Cc1ccnc(N2CCN(CC(O)c3ccc(F)cc3F)CC2)c1 (stereo not drawn)	-5.984	1.385
CCc1[nH]ncc1C(=O)N1CCCC(n2nc(C)nc2C)C1 (stereo not drawn)	2.53	1.707
O=C(C1CN(c2ncc(F)cn2)CC12CCOCC2)N1CCOCC1 (stereo not drawn)	0.4008	-0.3526
CCn1ccnc1CN1CCN(CC(O)CN2CCOCC2)CC1 (stereo not drawn)	-39.75	0.208
O=C(NCCN1CCOCC1)c1cc(COc2ccccc2F)[nH]n1	-8.873	-4.198
CC(NC(=O)NC1CC1)c1nc(-c2ccccc2)cs1 (stereo not drawn)	-9.407	-1.519
Cc1nnc(NC(=O)CN(C)CC2CCCN2c2cccnn2)s1 (stereo not drawn)	0.1782	5.816
CN(C)C(=O)NC1COC2(CCN(C(=O)Nc3ccccc3)CC2)C1 (stereo not drawn)	17.65	-3.7
Cc1ccc(C(=O)O)c(N2Cc3cnc(C(C)(C)C)nc3C2)n1	13.97	-0.6159
COC(=O)c1ccc(CCn2cnc(C#N)n2)cc1	-2.815	4.192
CCc1noc(C(C)N(C)CC(=O)Nc2c(C)cccc2C)n1 (stereo not drawn)	1.205	-1.924
CCNC(=O)[C@@H]1C[C@H](N)CN1c1cc(C(F)(F)F)nc(N2CCCC2)n1	3.684	-0.5757
Cc1ccc(CN2CCc3onc(C(=O)N4CCCC4)c3C2)o1	-4.412	-
CS(=O)(=O)NCCN(CCCO)C1CCc2ccccc21 (stereo not drawn)	-10.97	2.185
Cc1cnccc1-c1cnn(CCNC(=O)c2cccnc2)c1C1CC1	1.072	1.171
CC(=O)N1CCCC(c2ccccn2)C1 (stereo not drawn)	5.577	-
CC(C)c1nnc2n1CCN(C(C(N)=O)c1ccc(F)cc1)C2 (stereo not drawn)	-5.076	3.803
COc1ccc(-c2ccc(C(=O)N3CCOCC3CC(=O)O)o2)cc1 (stereo not drawn)	-14.86	-2.441
CC(C)c1nnc(NC(=O)NCc2cccnc2NCCN(C)C)s1	-0.5607	-3.116
Cc1noc(C)c1CSCc1csc(CS(C)(=O)=O)n1	-0.399	1.762
CC(C)c1nn(C)c(N2CCOCC2)c1CN[C@H](C)CO	2.753	3.216
CN(C)C(=O)[C@H]1CO[C@H]2CCN(c3ncc(F)cn3)C[C@H]2C1	-12.31	-6.649
COc1ccc(OC2CCN(C(=O)C3CCCN(C)C3)CC2)cc1 (stereo not drawn)	8.188	0.5298
Cc1csc(N2CCN(C(=O)C(C)n3cncn3)CC2)n1 (stereo not drawn)	1.939	-8.678
CC(C)NC(=O)C1CN(Cc2ccsc2)Cc2ccnn2C1 (stereo not drawn)	2.108	-0.6342
Clc1ccc(C2(CNC3=NCCN3)CCCCC2)cc1	-6.174	7.762
O=C(NCCCn1ccnc1)N1CCCC1c1cccs1 (stereo not drawn)	8.488	0.9651
CCC(C)(C)NC(=O)c1ccc(NC(=O)NCc2cc(C)on2)cc1	4.167	-4.956
CS(=O)(=O)N[C@H]1COC[C@@H]2CN(Cc3ccco3)C[C@@H]21	-11.89	-7.713
CCc1ccc(NC(=O)c2n[nH]c(-n3cnnc3)n2)cc1	0.1552	-1.813
CNS(=O)(=O)Cc1ccc(CNC(=O)c2cccc(C)n2)cc1	9.479	-4.876
CCOCc1nn(C)c2c1CN(Cc1cccs1)CC2	1.63	-
O=C([C@@H]1CCCO1)N1CCOCC2(CCN(Cc3cccnc3)C2)C1 (stereo partly drawn)	5.772	-
Cc1nc(C(=O)N2CCCCC2)nn1-c1ccccc1Cl	-14.34	-5.009
CC(=O)c1cccc(CN2CCCC23CCN(c2ccccn2)CC3)c1	-5.328	3.585
Cc1ccc(S(=O)(=O)N2CCN(C)C3(CCC(=O)N(C)CC3)C2)s1 (stereo not drawn)	-2.926	1.867
O=C(C(O)c1ccccc1Cl)N1CCCN(Cc2cccnc2)CC1 (stereo not drawn)	-8.065	4.312
Fc1ccc(C(NCc2nnc(-c3ccco3)o2)C2CCC2)cc1 (stereo not drawn)	-9.665	1.891
CN(C)c1ccc(CCNC(=O)NCc2ccc(N(C)C)nc2)cc1	6.038	2.426
Cc1c(F)cccc1S(=O)(=O)N(C)CC(C)O (stereo not drawn)	-1.572	5.156
CNCC(=O)N1CCC(c2cccc(Oc3ccccc3)n2)CC1	5.841	-1.795
CC(=O)N1CCc2c(nc(N(C)C)nc2NCCCn2ccnc2C)C1	-5.589	3.92
Cc1cnccc1-n1nc(C(C)C)nc1CCc1cnccn1	-3.72	2.064
CN1CCC2(C=C(C(=O)N(C)C)c3ccccc32)CC1	-14.66	-
CC1CCCN(S(=O)(=O)NCCCn2ccc3ccccc32)C1 (stereo not drawn)	5.119	2.577
CCC(CO)N(C/C(C)=C/c1ccco1)Cc1ccco1 (stereo not drawn)	-1.404	-1.464
CC(C)c1nc(C(=O)NCCn2ccnc2)nn1-c1cccc(F)c1	-2.278	5.556
Cc1cc(C(=O)NC(C)Cc2ccc(N(C)C)cc2)n(C)n1 (stereo not drawn)	-7.122	2.177

The last 5 entries again:

CN1CCC2(C=C(C(=O)N(C)C)c3ccccc32)CC1 gave A: -14.66%.
CC1CCCN(S(=O)(=O)NCCCn2ccc3ccccc32)C1 (stereo not drawn) gave A: 5.119%; B: 2.577%.
CCC(CO)N(C/C(C)=C/c1ccco1)Cc1ccco1 (stereo not drawn) gave A: -1.404%; B: -1.464%.
CC(C)c1nc(C(=O)NCCn2ccnc2)nn1-c1cccc(F)c1 gave A: -2.278%; B: 5.556%.
Cc1cc(C(=O)NC(C)Cc2ccc(N(C)C)cc2)n(C)n1 (stereo not drawn) gave A: -7.122%; B: 2.177%.